# Assay results published in the supplement of paper PMC4604168 (melanoma cell lines).
# This is one part of the list. Repeats are few or missing, and single values can be far off.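 Cells were imaged in 1,536-well plates, and nuclei stained with an antibody against cleaved PARP were counted against all DNA-stained nuclei to give the apoptosis fraction. Screening doses were chosen to leave most cells alive, and resting and induced cleaved-PARP levels differ strongly between cell lines.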
# Tested on: CBRC016 (line from a melanoma biopsy)
# Experiment: cleaved PARP positive nuclei fraction relative to DMSO control; melanoma cells; higher = more apoptosis
# Conditions: library dose: low library concentration; 72 h
row,Structure (SMILES),cleaved PARP positive nuclei fraction [%]
1,"CO[C@H]1C[C@@H]2CC[C@@H](C)[C@@](O)(O2)C(=O)C(=O)N2CCCC[C@H]2C(=O)O[C@H]([C@H](C)C[C@@H]2CC[C@@H](OCCO)[C@H](OC)C2)CC(=O)[C@H](C)/C=C(\C)[C@@H](O)[C@@H](OC)C(=O)[C@H](C)C[C@H](C)/C=C/C=C/C=C/1C [everolimus] + C#Cc1cccc(Nc2ncnc3cc(OCCOC)c(OCCOC)cc23)c1 [erlotinib] (first compound 0.02 µM, partner dose 0.8 µM)",68.6
2,"CS(=O)(=O)CCNCc1ccc(-c2ccc3ncnc(Nc4ccc(OCc5cccc(F)c5)c(Cl)c4)c3c2)o1 [lapatinib] + OCc1c[nH]c2ccccc12 [Indole-3-carbinol] (first compound 0.8 µM, partner dose 0.8 µM)",299
3,"C[C@@H](Oc1cc(-c2cnn(C3CCNCC3)c2)cnc1N)c1c(Cl)ccc(F)c1Cl [Crizotinib] + Nc1ccn([C@@H]2O[C@H](CO)[C@@H](O)C2(F)F)c(=O)n1 [gemcitabine] (first compound 0.2 µM, partner dose 0.0004 µM)",125
4,"O=C(O)[C@@H]1[O][Sb](=[O])([O][Sb]2(=[O])[O][C@H]([C@H](O)CO)[C@H](O)[C@H](C(=O)O)[O]2)[O][C@H]([C@H](O)CO)[C@@H]1O (stereo partly specified) [stibogluconate] + COc1ccc(Cl)c(Nc2nc3ccccc3nc2NS(=O)(=O)c2cccc(NC(=O)C(C)(C)N)c2)c1 [XL147] (first compound 2 µM, partner dose 0.8 µM)",455
5,"Cc1cc(Nc2cc(N3CCN(C)CC3)nc(/C=C/c3ccccc3)n2)n[nH]1 + C#Cc1cccc(Nc2ncnc3cc(OCCOC)c(OCCOC)cc23)c1 [erlotinib] (first compound 0.04 µM, partner dose 0.8 µM)",140
6,"Nc1ccn([C@@H]2O[C@H](CO)[C@@H](O)C2(F)F)c(=O)n1 [gemcitabine] + COc1ccc(Cl)c(Nc2nc3ccccc3nc2NS(=O)(=O)c2cccc(NC(=O)C(C)(C)N)c2)c1 [XL147] (first compound 0.0004 µM, partner dose 0.8 µM)",164
7,"Cc1cc(Nc2cc(N3CCN(C)CC3)nc(/C=C/c3ccccc3)n2)n[nH]1 + CNC(=O)c1cc(Oc2ccc(NC(=O)Nc3ccc(Cl)c(C(F)(F)F)c3)cc2)ccn1 [sorafenib] (first compound 0.04 µM, partner dose 0.4 µM)",50
8,"O=C(O)c1ccc2c(c1)nc(Nc1cccc(Cl)c1)c1ccncc12 + Nc1nc(F)nc2c1ncn2[C@@H]1O[C@H](CO)[C@@H](O)[C@@H]1O [fludarabine] (first compound 0.4 µM, partner dose 0.2 µM)",154
9,"O=C(O)c1ccc2c(c1)nc(Nc1cccc(Cl)c1)c1ccncc12 + Nc1cccc2c1CN(C1CCC(=O)NC1=O)C2=O [lenalidomide] (first compound 0.4 µM, partner dose 1 µM)",163
10,"Nc1ncn([C@H]2C[C@H](O)[C@@H](CO)O2)c(=O)n1 [decitabine] + OCc1c[nH]c2ccccc12 [Indole-3-carbinol] (first compound 0.1 µM, partner dose 0.8 µM)",153
11,"CC(C)C[C@H](NC(=O)[C@H](Cc1ccccc1)NC(=O)c1cnccn1)B(O)O [Bortezomib] + Cn1c(Nc2ccc(C(F)(F)F)cc2)nc2cc(Oc3ccnc(-c4ncc(C(F)(F)F)[nH]4)c3)ccc21 [CHIR265] (first compound 0.001 µM, partner dose 0.08 µM)",1330
12,"Cn1c(=O)n(-c2ccc(C(C)(C)C#N)cc2)c2c3cc(-c4cnc5ccccc5c4)ccc3ncc21 + C[C@]1(c2nc3c(C(N)=O)cccc3[nH]2)CCCN1 [Veliparib] (first compound 0.004 µM, partner dose 1.4 µM)",40
13,"CS(=O)(=O)CCNCc1ccc(-c2ccc3ncnc(Nc4ccc(OCc5cccc(F)c5)c(Cl)c4)c3c2)o1 [lapatinib] + COCC[n+]1c2c(n(Cc3cnccn3)c1C)C(=O)c1ccccc1C2=O [YM155] (first compound 0.8 µM, partner dose 0.0004 µM)",263
14,"CCCS(=O)(=O)Nc1ccc(F)c(C(=O)c2c[nH]c3ncc(Cl)cc23)c1F + Nc1nc(F)nc2c1ncn2[C@@H]1O[C@H](CO)[C@@H](O)[C@@H]1O [fludarabine] (first compound 0.08 µM, partner dose 0.2 µM)",91.2
15,"Cc1cc(Nc2cc(N3CCN(C)CC3)nc(/C=C/c3ccccc3)n2)n[nH]1 + CO[C@H]1C[C@@H]2CC[C@@H](C)[C@@](O)(O2)C(=O)C(=O)N2CCCC[C@H]2C(=O)O[C@H]([C@H](C)C[C@@H]2CC[C@@H](OCCO)[C@H](OC)C2)CC(=O)[C@H](C)/C=C(\C)[C@@H](O)[C@@H](OC)C(=O)[C@H](C)C[C@H](C)/C=C/C=C/C=C/1C [everolimus] (first compound 0.04 µM, partner dose 0.02 µM)",116
16,"CCCS(=O)(=O)Nc1ccc(F)c(C(=O)c2c[nH]c3ncc(Cl)cc23)c1F + Nc1ncn([C@H]2C[C@H](O)[C@@H](CO)O2)c(=O)n1 [decitabine] (first compound 0.08 µM, partner dose 0.1 µM)",103

# No new results follow: entries from further up.
row,Structure (SMILES),cleaved PARP positive nuclei fraction [%]
12,"Cn1c(=O)n(-c2ccc(C(C)(C)C#N)cc2)c2c3cc(-c4cnc5ccccc5c4)ccc3ncc21 + C[C@]1(c2nc3c(C(N)=O)cccc3[nH]2)CCCN1 [Veliparib] (first compound 0.004 µM, partner dose 1.4 µM)",40
13,"CS(=O)(=O)CCNCc1ccc(-c2ccc3ncnc(Nc4ccc(OCc5cccc(F)c5)c(Cl)c4)c3c2)o1 [lapatinib] + COCC[n+]1c2c(n(Cc3cnccn3)c1C)C(=O)c1ccccc1C2=O [YM155] (first compound 0.8 µM, partner dose 0.0004 µM)",263
